Source: US20060052421A1, “Conjugation agent” (Eastman Kodak Company, priority 2004, published 2006)

Assay: Chemoselectivity for thiol-containing groups relative to amines: reaction with lysine, ratio of rate constants
Settings: for Selectivity, krel(thiol)/krel(amine): Table 2, water soluble conjugation agents, determined as for Table 1

Structure (SMILES) | Selectivity, krel(thiol)/krel(amine) | Selectivity for thiol-containing groups relative to C6 (Table 2 data)
C=CS(=O)(=O)CS(=O)(=O)C=C [C9, bis(vinylsulfonyl)methane, reference compound] | 538 | –
CCn1nnnc1Sc1cc[n+](Cc2ccccc2)cc1 [I6] | 10^7 | –
CCn1nnnc1Sc1c(C(=O)NCCC(=O)O)cc([N+](=O)[O-])cc1[N+](=O)[O-] [I4] | 369,000 | about 88 times
CCn1nnnc1Sc1c([N+](=O)[O-])cc(C(=O)NCCC(=O)O)cc1[N+](=O)[O-] [I5] | 178,000 | –
